Test results taken from paper PMC3398031.
No constants are given. Whether binding was seen depends on the method and setting. In cells and extracts the contact can be indirect. A result given as binding can be weak or reduced; the word gives no strength. Sequences can lack the tags named with a protein.

Target: CXCR4-v1/v2 homodimer (CXCR4-venus(1-157) with CXCR4-venus(158-238), BiFC-reconstituted)
Assay: split reporter + FRET or BRET; BiFC-BRET in HEK293 cells, 48 h after co-transfection: receptor pairs tagged with venus halves (v1/v2) as acceptor, Rluc-tagged protein as donor; Rluc alone as negative control

B1: DRiP78-Rluc (Dopamine Receptor-interacting Protein 78 fused to Renilla luciferase) (protein, UniProt Q6Y2X3 1-702)
chain: MAQKHPGERGLYGAHHSGGASLRTLGPSVDPEIPSFSGLRDSAGTAPNGTRCLTEHSGPKHTQHPNPAHWLDPSHGPPGGPGPPRDAEDPDQSETSSEEESGVDQELSKENETGNQKDGNSFLSIPSACNCQGTPGIPEGPYSEGGNGSSSNFCHHCTSPALGEDELEEEYDDEESLKFPSDFSRVSSGKKPPSRRQRHRFPTKEDTREGGRRDPRSPGRHRLGRKRSQADKRKGLGLWGAEELCQLGQAGFWWLIELLVLVGEYVETCGHLIYACRQLKSSDLDLFRVWMGVWTGRLGGWAQVMFQFLSQGFYCGVGLFTRFLKLLGALLLLALALFLGFLQLGWRFLVGLGDRLGWRDKATWLFSWLDSPALQRCLTLLRDSRPWQRLVRIVQWGWLELPWVKQNINRQGNAPVASGRYCQPEEEVARLLTMAGVPEDELNPFHVLGVEATASDVELKKAYRQLAVMVHPDKNHHPRAEEAFKVLRAAWDIVSNAEKRKEYEMKRMAENELSRSVNEFLSKLQDDLKEAMNTMMCSRCQGKHRRFEMDREPKSARYCAECNRLHPAEEGDFWAESSMLGLKITYFALMDGKVYDITEWAGCQRVGISPDTHRVPYHISFGSRIPGTRGRQRATPDAPPADLQDFLSRIFQVPPGQMPNGNFFAAPQPAPGAAAASKPNSTVPKGEAKPKRRKKVRRPFQR
Question: With B1 as the binder, how does the binding read?
Answer: The binding was “binds”.
